Measurements published in PubChem BioAssay AID504467 (National Center for Advancing Translational Sciences (NCATS), 2011).
About 7,700 (2.3%) of roughly 330,000 compounds were called active. This list was built around the results that the source calls inconclusive (neither active nor inactive); the mix of calls is not that of the screen. Calls follow the shape of the dose curve; as a rule, active = well fitted inhibition curve with a large enough effect; inconclusive = small, poorly fitted or top-dose-only effect, or effect the other way; inactive = flat fitted curve, though single readings scatter. Potencies beside an inconclusive call are fits to weak or partial responses and may not hold up.

experiment: qHTS screen for small molecules that inhibit ELG1-dependent DNA repair in human embryonic kidney (HEK293T) cells expressing luciferase-tagged ELG1; settings: HEK293T ELG1-luciferase reporter, luminescence, 16 h, DNA damage induced by 5-fluorouridine; activity change, negative = inhibition: at 46.1 µM (top of the series); also: nearly all actives have a fitted effect of over 55% in size
How it was run: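 DMSO vehicle served as the neutral condition. Each well held 2,000 cells given 5-fluorouridine plus compound; after 16 hr at 37 °C/5% CO2, ONE-Glo was added and luciferase measured 30 min later.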
% is scaled to controls: 0 for no effect and ±100 for the full control effect; potency is read from the fitted curve at half-maximal effect.

With Cc1ccccc1OCc1nc(-c2ccc(NC(=O)c3ccco3)cc2)no1 as the compound, how does the Potency read?
The Potency was inconclusive: 2.59 µM [activator, full curve].

With Nn1c(SCC(=O)Nc2cccc(Br)c2)nnc1C1CC1 as the compound, how does the Potency read?
Its Potency is inconclusive: 9.2 µM [activator, partial curve, poor fit].

For COc1ccc(-n2c(SCC(=O)N3CCOCC3)nc3ccccc3c2=O)cc1, which Potency is on record?
The Potency was inconclusive: 32.6 µM [activator, partial curve, poor fit].

Which Potency does the source give for Cc1cnc(-c2nnc(N(C)C(=O)C3CCOC3)s2)cn1 (configuration not stated) here?
The Potency was inconclusive: 16.4 µM [activator, single point].

For CCCCn1c(=N)n(CC(O)COc2ccccc2)c2ccccc21 (configuration not stated), which Potency is on record?
Its Potency is inconclusive: 29.1 µM [inhibitor, single point].

For CNC(=O)c1csc(-c2ccccc2)n1, which Potency is on record?
The Potency was inconclusive: 32.6 µM [activator, partial curve, poor fit].

For CCN(CC)S(=O)(=O)c1cccc(C(=O)NC(C(=O)Nc2nnc(C3CC3)s2)C(C)C)c1 (configuration not stated), which Potency is on record?
The Potency was inconclusive: 25.9 µM [inhibitor, single point].

Which “activity change, negative = inhibition” value does the source give for O=C(N/N=C\c1ccc(CNS(=O)(=O)c2ccc(Cl)cc2)o1)C(=O)Nc1ccc(Oc2ccccc2)cc1 here?
Its value is inactive: 6.62%.

Which Potency does the source give for Cc1ccc(NC(=S)NC(=O)C2CCCCC2)c(Br)c1 here?
Its Potency is inconclusive: 3.66 µM [activator, full curve].

With COc1ccc(-c2noc(CSc3nnc(Cc4ccccc4)n3-c3cccc(C)c3)n2)cc1OC as the compound, how does the Potency read?
Its Potency is inconclusive: 18.4 µM [inhibitor, single point].

With Cc1ccc(-c2nn(-c3ccccc3)cc2/C=C2\SC(=S)N(CC(=O)O)C2=O)cc1 as the compound, how does the “activity change, negative = inhibition” value read?
The value was inactive: 12.1%.

For CCOCCCn1c(=O)c2ccccc2n2c(=S)[nH]nc12, which “activity change, negative = inhibition” value is on record?
Its value is inactive: 3.44%.

Which Potency does the source give for C#CCOCCOCCOCCNc1nc(N2CCN(C(=O)CCCCCCCCCCNC(=O)Cn3cc(CCCCCN)nn3)CC2)nc(N2CCN(C(=O)CCCCCCCCCCNC(=O)[C@H]([C@@H](C)CC)n3cc(CCCCN=C(N)N)nn3)CC2)n1 here?
The Potency was inconclusive: 12.6 µM [inhibitor, single point].

With COc1cccc(NC(=O)C(=O)NCCCN2CCCC2=O)c1 as the compound, how does the Potency read?
Its Potency is inconclusive: 18.3 µM [activator, partial curve].

With CC(C)NC(=O)C1CCN(C2CCN(C(=O)c3cc4c(s3)CCCCC4)CC2)CC1 as the compound, how does the “activity change, negative = inhibition” value read?
The value was inactive: -13.7%.

With CC/C(C)=N\Nc1nc(-c2cc3cc(OC)ccc3oc2=O)cs1 as the compound, how does the Potency read?
The Potency was inconclusive: 1.83 µM [activator, full curve].

Which Potency does the source give for Cc1ccc(CNC(=O)Nc2ccc3c(c2)N(C)C(=O)CS3)cc1 here?
Its Potency is inconclusive: 29.1 µM [inhibitor, single point].

For Cc1ccc(C)c(N(CC(=O)NCCSCc2ccco2)S(C)(=O)=O)c1, which Potency is on record?
Its Potency is inconclusive: 35.5 µM [inhibitor, single point].

For COc1cc(C=O)ccc1OCCCOc1ccc([N+](=O)[O-])cc1, which “activity change, negative = inhibition” value is on record?
The value was inactive: -14.5%.

Which “activity change, negative = inhibition” value does the source give for COc1cccc(NC(=O)C2CC(=O)n3cnnc3S2)c1 (configuration not stated) here?
The value was inactive: -8.63%.

Which Potency does the source give for Cc1cccc(NC(=O)c2ccc3ccccc3n2)n1 here?
The Potency was inconclusive: 6.51 µM [activator, partial curve].

Which Potency does the source give for COc1cc2ccccc2cc1C(=O)Nc1ccc(O)cc1 here?
The Potency was inconclusive: 2.31 µM [activator, full curve].

Which “activity change, negative = inhibition” value does the source give for [N-]=[N+]=NC[C@H](Cc1ccccc1)N1CC[C@@H](OCc2ccccc2)CCC1=O here?
The value was inactive: 15.9%.

For Cc1n[nH]c(=O)c2c(NC(=O)CSc3ccccc3Cl)oc(C)c12, which “activity change, negative = inhibition” value is on record?
Its value is inactive: -0.858%.

For CC1(C)Cc2c(sc3ncnc(N)c23)CO1, which “activity change, negative = inhibition” value is on record?
Its value is inactive: -7.02%.

For O=C1CCN(Cc2ccccc2)CCN1CCSc1ccccc1, which Potency is on record?
The Potency was inconclusive: 5.17 µM [activator, partial curve].

With CCC1COCCS(=O)(=O)N1Cc1ccc(Cl)cc1 (configuration not stated) as the compound, how does the “activity change, negative = inhibition” value read?
The value was inactive: 8.83%.

With CCN(CC)c1ccc(NC(=O)COc2ccc(N(C)S(=O)(=O)c3cccs3)cc2)cc1 as the compound, how does the Potency read?
Its Potency is inconclusive: 16.4 µM [inhibitor, single point].

With O=C(CN1CCc2ccccc21)NN1CC(=O)N(c2ccc(Cl)cc2)CC1=O as the compound, how does the “activity change, negative = inhibition” value read?
Its value is inactive: 0.172%.

For CCCNC(=O)c1ccccc1NC(=O)Cc1ccc(OC)c(S(=O)(=O)N2CCOCC2)c1, which Potency is on record?
Its Potency is inconclusive: 32.6 µM [activator, partial curve, poor fit].

For O=C(NCCO)C(=O)Nc1cc2c3c(c1)CCC(=O)N3CCC2, which Potency is on record?
Its Potency is inconclusive: 9.2 µM [activator, partial curve].

Which Potency does the source give for O=C(Nc1nc(-c2ccc(-c3ccccc3)cc2)cs1)C1=COCCO1 here?
The Potency was inconclusive: 29.1 µM [activator, single point].

Which Potency does the source give for CO/N=C/CC(=O)c1cnc(-c2ccc(Cl)cc2)s1 here?
Its Potency is inconclusive: 25.9 µM [activator, single point].

For CC(=O)c1c(C)[nH]c(C(=O)COC(=O)c2ccc3c(=O)n4c(nc3c2)CCC4)c1C, which Potency is on record?
Its Potency is inconclusive: 13 µM [inhibitor, partial curve].

For C/C=C/c1ccc(OCCOc2cc(C=O)ccc2OC)c(OC)c1, which Potency is on record?
The Potency was inconclusive: 16.4 µM [activator, partial curve].

With Cc1ccccc1NC(=O)n1ncc2cc(Cl)ccc21 as the compound, how does the Potency read?
Its Potency is inconclusive: 7.3 µM [activator, partial curve, poor fit].

For O=C(CCN1N=C(c2ccccc2)CCC1=O)NCC1CCCO1 (configuration not stated), which “activity change, negative = inhibition” value is on record?
Its value is inactive: 6.01%.

With CCCCC(=O)Nc1ccc(C(=O)Nc2nnc(COC)s2)cc1 as the compound, how does the “activity change, negative = inhibition” value read?
The value was inactive: 2.02%.

Which “activity change, negative = inhibition” value does the source give for COc1ccccc1N1CCN(C(=O)CCC(=O)O)CC1 here?
Its value is inactive: 2.41%.

For Fc1ccccc1-c1n[nH]c(=S)n1Cc1ccccc1, which “activity change, negative = inhibition” value is on record?
Its value is inactive: -9.4%.

For COc1ccc(Cl)cc1NC(=O)C/C(C)=N/NC(=O)Cc1ccccc1, which “activity change, negative = inhibition” value is on record?
The value was inactive: 21.6%.

Which Potency does the source give for Cc1cccc(-c2cc3nc(C)c(C)c(NCCCn4ccnc4)n3n2)c1 here?
The Potency was inconclusive: 14.6 µM [inhibitor, partial curve, poor fit].

With COCCn1c(C)cc(C2=NNC(=NC3CC3)SC2)c1C as the compound, how does the Potency read?
Its Potency is active: 5.17 µM.

Which Potency does the source give for CC(C)(C)c1ccc(NC(=O)c2ccccc2)c([N+](=O)[O-])c1 here?
Its Potency is inconclusive: 2.31 µM [activator, partial curve].

With CCCc1nc(SCC(=O)NC2CCCC2)c2ccccc2n1 as the compound, how does the “activity change, negative = inhibition” value read?
Its value is inactive: -2.37%.

With Fc1ccc(CSc2ccc(-c3ccc4c(c3)OCO4)nn2)cc1 as the compound, how does the Potency read?
The Potency was inconclusive: 29.1 µM [activator, single point].

Which “activity change, negative = inhibition” value does the source give for CCCN1CCN(C(c2cc3cc(OCC)ccc3[nH]c2=O)c2nnnn2C2CCCCC2)CC1 (configuration not stated) here?
The value was inactive: 23.8%.

With CC(=O)N1CCc2cc(S(=O)(=O)NCCC(=O)Nc3cc(C)cc(C)c3)ccc21 as the compound, how does the “activity change, negative = inhibition” value read?
The value was inactive: 9.86%.

For Nc1c(C(=O)NCc2ccc3c(c2)OCO3)c2nc3ccccc3nc2n1CCCN1CCOCC1, which Potency is on record?
The Potency was inconclusive: 18.4 µM [inhibitor, partial curve].

Which Potency does the source give for O=C(c1ccc(S(=O)(=O)NCC2CCCO2)cc1)N1CCc2ccccc21 (configuration not stated) here?
Its Potency is inconclusive: 9.2 µM [inhibitor, partial curve, poor fit].

Which Potency does the source give for O=C(NCCc1ccc(F)cc1)c1n[nH]c2ccccc12 here?
The Potency was inconclusive: 18.3 µM [activator, partial curve].

With CCN(CC)CCCNC(=O)c1cc(-c2ccc(O)cc2)on1 as the compound, how does the “activity change, negative = inhibition” value read?
The value was inactive: 11.7%.

Which Potency does the source give for COc1cccc2cc(-c3ccccc3)c(=O)oc12 here?
The Potency was inconclusive: 20.6 µM [activator, partial curve].

For COC(=O)c1c(NC(=O)CSc2nnc(CNc3ccc(Cl)cc3)o2)sc(C)c1C, which Potency is on record?
Its Potency is inconclusive: 23.1 µM [inhibitor, single point].

With COc1ccc(NC(=O)[C@H](C)NC(=O)C2CCN(S(=O)(=O)c3ccc(C)cc3)CC2)cc1 as the compound, how does the “activity change, negative = inhibition” value read?
Its value is inactive: 9.57%.

Which “activity change, negative = inhibition” value does the source give for COc1ccc(OC)c2[nH]c(=O)c(CCNC(=S)NC(C)(C)C)cc12 here?
Its value is inactive: -26.5%.

Which Potency does the source give for CCN(Cc1ccccc1)C(=O)Cn1c(=O)n(-c2ccc(OC)cc2OC)c(=O)c2c(C)c(C)sc21 here?
Its Potency is inconclusive: 29.1 µM [inhibitor, single point].

Which Potency does the source give for C=CCn1cccc(C(=O)Nc2ccc(C)cc2)c1=O here?
The Potency was inconclusive: 10.3 µM [activator, partial curve].

With O=C(COC(=O)c1ccc(F)cc1F)c1ccc[nH]1 as the compound, how does the “activity change, negative = inhibition” value read?
Its value is inactive: 16.9%.

Which “activity change, negative = inhibition” value does the source give for Cc1noc(C)c1CSCC(=O)Nc1nc2c(F)cc(F)cc2s1 here?
The value was inactive: -1.2%.

With CCC1=Nc2cc(C(=O)NCCN3CCOCC3)ccc2Sc2ccccc21 as the compound, how does the “activity change, negative = inhibition” value read?
The value was inactive: 5.15%.

For C=C(c1ccc(OC)cc1)c1ccc(OC)cc1, which “activity change, negative = inhibition” value is on record?
The value was inactive: 8.1%.

Which “activity change, negative = inhibition” value does the source give for CN(Cc1ccc2nonc2c1)Cc1nc(CC2CC2)no1 here?
Its value is inactive: -1.98%.

For CC(=O)c1cccc(NS(=O)(=O)c2ccc(N/C=C\C(=O)c3ccc(C)cc3)cc2)c1, which activity change, negative = inhibition is on record?
The activity change, negative = inhibition was inconclusive: 24.5% [activator].

With CN(CC(=O)Nc1ccc(Cl)c(C(F)(F)F)c1)C(=O)Cn1cc([N+](=O)[O-])ccc1=O as the compound, how does the Potency read?
Its Potency is inconclusive: 29.1 µM [inhibitor, single point].

For O=C(COc1ccc(Cl)cc1Cl)N1CCNC1=O, which Potency is on record?
Its Potency is inconclusive: 18.3 µM [activator, single point].

Which “activity change, negative = inhibition” value does the source give for COc1cc(/C=C2\SC(=S)N(CCCCC(=O)O)C2=O)ccc1OS(=O)(=O)c1ccc(C)cc1 here?
The value was inactive: 26%.

With Cc1cc(C(=O)CN2C(=O)CCC2=O)c(C)n1Cc1ccccc1 as the compound, how does the Potency read?
The Potency was inconclusive: 25.9 µM [activator, partial curve, poor fit].

Which “activity change, negative = inhibition” value does the source give for COc1ccccc1-c1nnc(SCC(=O)NC2CCS(=O)(=O)C2)n1N (configuration not stated) here?
The value was inactive: 0.102%.

Which Potency does the source give for Clc1ccc(-c2nnc(-c3ccccc3)c(N3CCSCC3)n2)cc1 here?
The Potency was inconclusive: 20.6 µM [inhibitor, single point].

With O=C(Cc1ccc(Cl)cc1)c1c[nH]c(C(=O)NCc2cccnc2)c1 as the compound, how does the Potency read?
The Potency was inconclusive: 18.3 µM [inhibitor, single point].

Which Potency does the source give for O=C(N/N=C\c1ccc([N+](=O)[O-])s1)c1cncc(Br)c1 here?
The Potency was inconclusive: 4.61 µM [inhibitor, full curve].
